Results reported in article PMC12858405, “Ideal efficacy photoswitching for chromocontrol of TRPC4/5 channel functions in live tissues” (Nature Chemical Biology, 2026).

Test system: Th+ neurons of Th-GCaMP6f (WT) mice
Assay: GCaMP6f Ca2+ imaging of Th+ neurons in arcuate nucleus brain slices with 355 nm photoswitching, Th-GCaMP6f (WT) mice
Conditions: after 355 nm pulse

Row | SMILES | Hill coefficient of Ca2+ dose-response in Th+ neurons, WT
1 | Cn1c(=O)n(CCCO)c(=O)c2c1nc(Oc1ccc(N=Nc3ccccc3)c(Cl)c1)n2Cc1ccc(Cl)cc1 [AzHC] | 1.95
2 | Cn1c(=O)n(CCCO)c(=O)c2c1nc(Oc1ccc(/N=N\c3ccccc3)c(Cl)c1)n2Cc1ccc(Cl)cc1 [Z*-AzHC] | 1.95
